Measured values published in the supplement of paper PMC8728848.
This is one part of the list.

What was measured:
Experiment in all cases: glycan array binding signal (z-score within array); higher = stronger binding
Conditions in all cases: glycan notation: IUPAC condensed, linker removed
[1] = target: Neu5Ac(a2-3)Gal(b1-3)[Neu5Ac(a2-6)]GlcNAc(b1-3)[Fuc(a1-3)[Gal(b1-4)]GlcNAc(b1-6)]Gal(b1-4)Glc
Method in brief: (§1)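 The binding signal is a Z-score computed within each array. Data were drawn from 3228 arrays in the Consortium for Functional Glycomics database, restricted to those with a known protein sequence. Scores were averaged over arrays of the same protein sequence at different concentrations or buffers, and over linkers, and negative values can be taken as non-binding.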

[2] = target: Neu5Ac(a2-3)Gal(b1-3)]Neu5Ac(a2-3)Gal(b1-4)]GlcNAc
Method in brief: as §1

[3] = target: Neu5Ac(a2-3)Gal(b1-4)Glc
Method in brief: as §1

[4] = target: Neu5Ac(a2-3)Gal(b1-4)GlcNAc
Method in brief: as §1

[5] = target: Neu5Ac(a2-3)Gal(b1-4)GlcNAc(b1-2)Man
Method in brief: as §1

[6] = target: Neu5Ac(a2-3)Gal(b1-4)GlcNAc(b1-2)Man(a1-3)[GlcNAc(b1-4)][Neu5Ac(a2-3)Gal(b1-4)GlcNAc(b1-2)Man(a1-6)]Man(b1-4)GlcNAc(b1-4)GlcNAc
Method in brief: as §1

[7] = target: Neu5Ac(a2-3)Gal(b1-4)GlcNAc(b1-2)Man(a1-3)[Neu5Ac(a2-3)Gal(b1-4)GlcNAc(b1-2)Man(a1-6)]Man(b1-4)GlcNAc(b1-4)GlcNAc
Method in brief: as §1

[8] = target: Neu5Ac(a2-3)Gal(b1-4)GlcNAc(b1-2)Man(a1-3)[Neu5Ac(a2-3)Gal(b1-4)GlcNAc(b1-2)Man(a1-6)]Man(b1-4)GlcNAc(b1-4)[Fuc(a1-6)]GlcNAc
Method in brief: as §1

[9] = target: Neu5Ac(a2-3)Gal(b1-4)GlcNAc(b1-2)Man(a1-3)[Neu5Ac(a2-6)Gal(b1-4)GlcNAc(b1-2)Man(a1-6)]Man(b1-4)GlcNAc(b1-4)GlcNAc
Method in brief: as §1

[10] = target: Neu5Ac(a2-3)Gal(b1-4)GlcNAc(b1-2)[Neu5Ac(a2-3)Gal(b1-4)GlcNAc(b1-4)]Man(a1-3)[GlcNAc(b1-4)][Neu5Ac(a2-3)Gal(b1-4)GlcNAc(b1-2)[Neu5Ac(a2-3)Gal(b1-4)GlcNAc(b1-6)]Man(a1-6)]Man(b1-4)GlcNAc(b1-4)GlcNAc
Method in brief: as §1

[11] = target: Neu5Ac(a2-3)Gal(b1-4)GlcNAc(b1-2)[Neu5Ac(a2-3)Gal(b1-4)GlcNAc(b1-4)]Man(a1-3)[GlcNAc(b1-4)][Neu5Ac(a2-3)Gal(b1-4)GlcNAc(b1-4)Man(a1-6)]Man(b1-4)GlcNAc(b1-4)GlcNAc
Method in brief: as §1

[12] = target: Neu5Ac(a2-3)Gal(b1-4)GlcNAc(b1-2)[Neu5Ac(a2-3)Gal(b1-4)GlcNAc(b1-6)]Man(a1-6)[Neu5Ac(a2-3)Gal(b1-4)GlcNAc(b1-2)Man(a1-3)][GlcNAc(b1-4)]Man(b1-4)GlcNAc(b1-4)GlcNAc
Method in brief: as §1

[13] = target: Neu5Ac(a2-3)Gal(b1-4)GlcNAc(b1-3)Gal
Method in brief: as §1

[14] = target: Neu5Ac(a2-3)Gal(b1-4)GlcNAc(b1-3)Gal(b1-3)GlcNAc
Method in brief: as §1

[15] = target: Neu5Ac(a2-3)Gal(b1-4)GlcNAc(b1-3)Gal(b1-4)GlcNAc
Method in brief: as §1

[16] = target: Neu5Ac(a2-3)Gal(b1-4)GlcNAc(b1-3)Gal(b1-4)GlcNAc(b1-2)Man(a1-3)[Neu5Ac(a2-3)Gal(b1-4)GlcNAc(b1-3)Gal(b1-4)GlcNAc(b1-2)Man(a1-6)]Man(b1-4)GlcNAc(b1-4)GlcNAc
Method in brief: as §1

[17] = target: Neu5Ac(a2-3)Gal(b1-4)GlcNAc(b1-3)Gal(b1-4)GlcNAc(b1-3)Gal(b1-4)GlcNAc
Method in brief: as §1

[18] = target: Neu5Ac(a2-3)Gal(b1-4)GlcNAc(b1-3)Gal(b1-4)GlcNAc(b1-3)Gal(b1-4)GlcNAc(b1-2)Man(a1-3)[Neu5Ac(a2-3)Gal(b1-4)GlcNAc(b1-3)Gal(b1-4)GlcNAc(b1-3)Gal(b1-4)GlcNAc(b1-2)Man(a1-6)]GalNAc
Method in brief: as §1

[19] = target: Neu5Ac(a2-3)Gal(b1-4)GlcNAc(b1-3)Gal(b1-4)GlcNAc(b1-3)GalNAc
Method in brief: as §1

[20] = target: Neu5Ac(a2-3)Gal(b1-4)GlcNAc(b1-3)Gal(b1-4)GlcNAc(b1-3)[Neu5Ac(a2-3)Gal(b1-4)GlcNAc(b1-3)Gal(b1-4)GlcNAc(b1-6)]GalNAc
Method in brief: as §1

[21] = target: Neu5Ac(a2-3)Gal(b1-4)GlcNAc(b1-3)Gal(b1-4)GlcNAc(b1-6)[Gal(b1-3)]GalNAc
Method in brief: as §1

[22] = target: Neu5Ac(a2-3)Gal(b1-4)GlcNAc(b1-3)Gal(b1-4)[Fuc(a1-3)]GlcNAc
Method in brief: as §1

[23] = target: Neu5Ac(a2-3)Gal(b1-4)GlcNAc(b1-3)GalNAc
Method in brief: as §1

[24] = target: Neu5Ac(a2-3)Gal(b1-4)GlcNAc(b1-3)[Neu5Ac(a2-3)Gal(b1-4)GlcNAc(b1-6)]GalNAc
Method in brief: as §1

[25] = target: Neu5Ac(a2-3)Gal(b1-4)GlcNAc(b1-6)GalNAc
Method in brief: as §1

[26] = target: Neu5Ac(a2-3)Gal(b1-4)GlcNAc(b1-6)[Gal(b1-3)]GalNAc
Method in brief: as §1

[27] = target: Neu5Ac(a2-3)Gal(b1-4)GlcNAc(b1-6)[Neu5Ac(a2-3)Gal(b1-3)]GalNAc
Method in brief: as §1

[28] = target: Neu5Ac(a2-3)Gal(b1-4)GlcNAc6S
Method in brief: as §1

[29] = target: Neu5Ac(a2-3)Gal(b1-4)[Fuc(a1-3)]GlcNAc
Method in brief: as §1

[30] = target: Neu5Ac(a2-3)Gal(b1-4)[Fuc(a1-3)]GlcNAc(b1-2)Man
Method in brief: as §1

[31] = target: Neu5Ac(a2-3)Gal(b1-4)[Fuc(a1-3)]GlcNAc(b1-3)Gal
Method in brief: as §1

[32] = target: Neu5Ac(a2-3)Gal(b1-4)[Fuc(a1-3)]GlcNAc(b1-3)Gal(b1-4)GlcNAc
Method in brief: as §1

[33] = target: Neu5Ac(a2-3)Gal(b1-4)[Fuc(a1-3)]GlcNAc(b1-3)Gal(b1-4)[Fuc(a1-3)]GlcNAc(b1-3)Gal(b1-4)[Fuc(a1-3)]GlcNAc
Method in brief: as §1

[34] = target: Neu5Ac(a2-3)Gal(b1-4)[Fuc(a1-3)]GlcNAc(b1-3)GalNAc
Method in brief: as §1

[35] = target: Neu5Ac(a2-3)Gal(b1-4)[Fuc(a1-3)]GlcNAc(b1-6)[Gal(b1-3)]GalNAc
Method in brief: as §1

[36] = target: Neu5Ac(a2-3)Gal(b1-4)[Fuc(a1-3)]GlcNAc(b1-6)[Neu5Ac(a2-3)Gal(b1-3)]GalNAc
Method in brief: as §1

[37] = target: Neu5Ac(a2-3)Gal(b1-4)[Fuc(a1-3)]GlcNAc6S
Method in brief: as §1

[38] = target: Neu5Ac(a2-3)Gal6S(b1-4)GlcNAc
Method in brief: as §1

B1: SabA (Helicobacter pylori) (protein)
chain: MGSSHHHHHHSSGLVPRGSHMENLYFQGEDNGFFVSAGYQIGEAVQMVKNTGELKNLNEKYEQLSQYLNQVASLKQSIQNANNIELVNSSLNYLKSFTNNNYNSTTQSPIFNAVQAVITSVLGFWSLYAGNYFTFFVGKKVGDSGQPASVQGNPPFKTIIENCSGIENCAMDQTTYDKMKKLAEDLQAAQTNSATKGNNLCALSGCAATDSTSNPPNSTVSNALNLAQQLMDLIANTKTAMMWKNIVISGVSNTSGAITSTNYPTQYAVFNNIKAMIPILQQAVTLSQSNHTLSASLQAQATGSQTNPKFAKDIYTFAQNQKQVISYAQDIFNLFNSIPAEQYKYLEKAYLKIPNAGSTPTNPYRQVVNLNQEVQTIKNNVSYYGNRVDAALSVARDVYNLKSNQAEIVTAYNDAKTLSEEISKLPHNQVNTKDIVTLPYDKNAPAAGQSNYQINPEQQSNLNQALAAMSNNPFKKVGMISSQNNNGA
For B1, the “glycan array binding signal (z-score)” value [1] was -0.626, the “glycan array binding signal (z-score)” value [2] was 0.162 and the “glycan array binding signal (z-score)” value [3] was 2.88. For the same binder, the “glycan array binding signal (z-score)” value [4] was 0.046, the “glycan array binding signal (z-score)” value [5] was 1.52 and the “glycan array binding signal (z-score)” value [6] was -0.359. For the same binder, the “glycan array binding signal (z-score)” value [7] was 0.218, the “glycan array binding signal (z-score)” value [8] was -0.235 and the “glycan array binding signal (z-score)” value [9] was -0.357. For the same binder, the “glycan array binding signal (z-score)” value [10] was 0.219, the “glycan array binding signal (z-score)” value [11] was -0.642 and the “glycan array binding signal (z-score)” value [12] was -0.617. For the same binder, the “glycan array binding signal (z-score)” value [13] was -0.41, the “glycan array binding signal (z-score)” value [14] was -0.735 and the “glycan array binding signal (z-score)” value [15] was -0.762. For the same binder, the “glycan array binding signal (z-score)” value [16] was -0.729, the “glycan array binding signal (z-score)” value [17] was 0.051 and the “glycan array binding signal (z-score)” value [18] was 1.25. The “glycan array binding signal (z-score)” value [19] was -0.287, the “glycan array binding signal (z-score)” value [20] was -0.187 and the “glycan array binding signal (z-score)” value [21] was -1.37. The “glycan array binding signal (z-score)” value [22] was -0.156, the “glycan array binding signal (z-score)” value [23] was -0.045 and the “glycan array binding signal (z-score)” value [24] was -0.509. The “glycan array binding signal (z-score)” value [25] was -0.414, the “glycan array binding signal (z-score)” value [26] was -0.438 and the “glycan array binding signal (z-score)” value [27] was -0.735. The “glycan array binding signal (z-score)” value [28] was 0.311, the “glycan array binding signal (z-score)” value [29] was -0.702 and the “glycan array binding signal (z-score)” value [30] was -0.806. The “glycan array binding signal (z-score)” value [31] was 0.06, the “glycan array binding signal (z-score)” value [32] was 0.139 and the “glycan array binding signal (z-score)” value [33] was -0.257. For the same binder, the “glycan array binding signal (z-score)” value [34] was 1.3, the “glycan array binding signal (z-score)” value [35] was 0.002 and the “glycan array binding signal (z-score)” value [36] was 0.408. For the same binder, the “glycan array binding signal (z-score)” value [37] was -0.545 and the “glycan array binding signal (z-score)” value [38] was 0.251.
